Source: the supplement of paper PMC12067093, “Discovery and optimisation of a covalent ligand for TRIM25 and its application to targeted protein ubiquitination” (Chemical Science, 2025)
Some of the results follow.

Chains of the proteins cited; added tags and fusions are not shown. Lines headed by an entry give the natural chain unless they say otherwise; changes in a name come on top.
UniProt Q9H4P4: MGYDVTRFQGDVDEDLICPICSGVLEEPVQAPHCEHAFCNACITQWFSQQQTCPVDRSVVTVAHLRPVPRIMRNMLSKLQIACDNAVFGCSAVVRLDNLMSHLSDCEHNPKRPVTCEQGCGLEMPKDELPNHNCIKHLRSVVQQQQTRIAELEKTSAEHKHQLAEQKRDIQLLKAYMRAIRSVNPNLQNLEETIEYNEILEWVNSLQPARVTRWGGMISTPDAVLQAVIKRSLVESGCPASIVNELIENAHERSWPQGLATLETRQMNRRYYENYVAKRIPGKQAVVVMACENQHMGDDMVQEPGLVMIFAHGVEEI
UniProt O43148, whole entry, looked up: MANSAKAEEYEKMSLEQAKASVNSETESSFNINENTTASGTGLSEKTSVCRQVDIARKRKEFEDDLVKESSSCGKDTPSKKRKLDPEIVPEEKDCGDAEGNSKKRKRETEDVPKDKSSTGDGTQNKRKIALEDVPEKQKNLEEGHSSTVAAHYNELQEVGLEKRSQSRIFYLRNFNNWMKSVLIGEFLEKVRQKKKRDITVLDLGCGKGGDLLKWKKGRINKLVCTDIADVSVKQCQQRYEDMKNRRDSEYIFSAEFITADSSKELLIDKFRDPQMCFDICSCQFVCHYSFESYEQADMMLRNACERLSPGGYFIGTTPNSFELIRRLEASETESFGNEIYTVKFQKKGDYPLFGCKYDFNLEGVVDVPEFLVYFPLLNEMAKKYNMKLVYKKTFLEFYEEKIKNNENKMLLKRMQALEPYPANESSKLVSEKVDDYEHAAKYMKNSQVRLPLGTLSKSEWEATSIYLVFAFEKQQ
UniProt P13489: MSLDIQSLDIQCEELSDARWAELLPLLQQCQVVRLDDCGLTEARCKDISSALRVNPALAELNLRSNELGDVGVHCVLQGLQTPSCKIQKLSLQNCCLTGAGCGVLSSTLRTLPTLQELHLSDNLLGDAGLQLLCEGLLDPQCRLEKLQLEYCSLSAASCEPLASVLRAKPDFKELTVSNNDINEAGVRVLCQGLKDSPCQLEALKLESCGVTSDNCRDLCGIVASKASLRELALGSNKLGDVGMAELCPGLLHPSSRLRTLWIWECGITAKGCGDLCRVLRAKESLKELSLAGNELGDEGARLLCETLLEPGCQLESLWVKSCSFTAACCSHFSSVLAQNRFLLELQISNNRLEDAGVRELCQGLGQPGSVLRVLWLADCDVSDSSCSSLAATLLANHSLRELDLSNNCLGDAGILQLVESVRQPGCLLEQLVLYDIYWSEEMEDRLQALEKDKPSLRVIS
UniProt Q96EP0: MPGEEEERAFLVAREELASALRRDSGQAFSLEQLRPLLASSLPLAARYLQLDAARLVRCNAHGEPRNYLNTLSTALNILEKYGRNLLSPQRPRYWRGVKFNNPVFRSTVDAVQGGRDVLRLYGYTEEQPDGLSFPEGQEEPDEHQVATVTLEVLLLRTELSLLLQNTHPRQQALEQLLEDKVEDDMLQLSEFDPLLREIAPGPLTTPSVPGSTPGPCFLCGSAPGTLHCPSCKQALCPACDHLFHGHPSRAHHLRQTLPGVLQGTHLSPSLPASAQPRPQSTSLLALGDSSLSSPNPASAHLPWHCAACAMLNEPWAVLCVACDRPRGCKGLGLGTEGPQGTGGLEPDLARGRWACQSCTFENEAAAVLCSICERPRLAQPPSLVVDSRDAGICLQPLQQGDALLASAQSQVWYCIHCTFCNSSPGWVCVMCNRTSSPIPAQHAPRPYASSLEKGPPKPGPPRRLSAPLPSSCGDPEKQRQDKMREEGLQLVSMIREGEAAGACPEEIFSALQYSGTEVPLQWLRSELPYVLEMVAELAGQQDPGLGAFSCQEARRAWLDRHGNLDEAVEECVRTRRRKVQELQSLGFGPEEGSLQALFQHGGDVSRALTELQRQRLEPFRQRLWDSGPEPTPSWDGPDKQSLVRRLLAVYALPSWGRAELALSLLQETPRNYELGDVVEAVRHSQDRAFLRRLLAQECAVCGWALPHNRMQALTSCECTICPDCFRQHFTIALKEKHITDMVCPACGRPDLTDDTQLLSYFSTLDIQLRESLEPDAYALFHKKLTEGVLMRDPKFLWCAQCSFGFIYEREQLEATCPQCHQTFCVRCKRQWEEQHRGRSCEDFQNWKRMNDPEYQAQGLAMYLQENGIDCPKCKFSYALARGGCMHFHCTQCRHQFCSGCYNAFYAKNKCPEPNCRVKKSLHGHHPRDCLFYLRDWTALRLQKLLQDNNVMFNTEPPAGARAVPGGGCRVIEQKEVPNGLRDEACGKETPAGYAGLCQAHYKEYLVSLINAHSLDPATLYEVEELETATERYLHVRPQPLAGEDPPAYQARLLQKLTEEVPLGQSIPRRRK
UniProt Q13464: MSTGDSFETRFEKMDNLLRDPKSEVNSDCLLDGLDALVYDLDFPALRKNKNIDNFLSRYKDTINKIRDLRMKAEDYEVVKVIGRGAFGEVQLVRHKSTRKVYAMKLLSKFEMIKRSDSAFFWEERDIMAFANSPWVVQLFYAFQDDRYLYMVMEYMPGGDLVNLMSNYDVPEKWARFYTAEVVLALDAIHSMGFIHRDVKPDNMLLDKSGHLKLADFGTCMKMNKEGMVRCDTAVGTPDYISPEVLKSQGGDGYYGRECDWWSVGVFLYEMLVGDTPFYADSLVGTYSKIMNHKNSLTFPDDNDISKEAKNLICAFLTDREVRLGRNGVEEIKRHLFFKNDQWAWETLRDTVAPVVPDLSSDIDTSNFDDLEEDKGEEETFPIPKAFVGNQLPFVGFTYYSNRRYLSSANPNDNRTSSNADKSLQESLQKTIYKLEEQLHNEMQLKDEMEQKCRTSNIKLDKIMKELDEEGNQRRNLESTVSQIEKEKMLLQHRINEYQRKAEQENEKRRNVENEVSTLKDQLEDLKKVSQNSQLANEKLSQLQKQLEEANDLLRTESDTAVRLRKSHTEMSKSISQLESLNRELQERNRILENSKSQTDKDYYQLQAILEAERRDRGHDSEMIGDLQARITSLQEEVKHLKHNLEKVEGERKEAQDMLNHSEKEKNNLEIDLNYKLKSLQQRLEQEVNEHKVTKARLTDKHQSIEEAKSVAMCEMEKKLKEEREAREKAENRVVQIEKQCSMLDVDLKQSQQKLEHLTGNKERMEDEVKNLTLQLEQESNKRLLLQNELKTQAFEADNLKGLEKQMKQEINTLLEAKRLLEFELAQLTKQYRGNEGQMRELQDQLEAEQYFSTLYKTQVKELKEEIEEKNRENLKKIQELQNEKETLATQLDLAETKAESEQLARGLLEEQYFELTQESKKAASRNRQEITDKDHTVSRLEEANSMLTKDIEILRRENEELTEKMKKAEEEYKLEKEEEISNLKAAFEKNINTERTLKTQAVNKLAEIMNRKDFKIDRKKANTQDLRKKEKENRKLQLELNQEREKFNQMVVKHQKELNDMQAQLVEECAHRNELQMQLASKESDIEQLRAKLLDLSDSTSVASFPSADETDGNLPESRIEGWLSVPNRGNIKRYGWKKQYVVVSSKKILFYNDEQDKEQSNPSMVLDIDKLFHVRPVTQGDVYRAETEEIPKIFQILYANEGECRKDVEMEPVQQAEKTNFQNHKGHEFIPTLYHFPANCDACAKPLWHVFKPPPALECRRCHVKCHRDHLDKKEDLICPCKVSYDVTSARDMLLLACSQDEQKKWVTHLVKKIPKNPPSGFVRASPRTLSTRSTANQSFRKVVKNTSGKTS
UniProt O75150, whole entry, looked up: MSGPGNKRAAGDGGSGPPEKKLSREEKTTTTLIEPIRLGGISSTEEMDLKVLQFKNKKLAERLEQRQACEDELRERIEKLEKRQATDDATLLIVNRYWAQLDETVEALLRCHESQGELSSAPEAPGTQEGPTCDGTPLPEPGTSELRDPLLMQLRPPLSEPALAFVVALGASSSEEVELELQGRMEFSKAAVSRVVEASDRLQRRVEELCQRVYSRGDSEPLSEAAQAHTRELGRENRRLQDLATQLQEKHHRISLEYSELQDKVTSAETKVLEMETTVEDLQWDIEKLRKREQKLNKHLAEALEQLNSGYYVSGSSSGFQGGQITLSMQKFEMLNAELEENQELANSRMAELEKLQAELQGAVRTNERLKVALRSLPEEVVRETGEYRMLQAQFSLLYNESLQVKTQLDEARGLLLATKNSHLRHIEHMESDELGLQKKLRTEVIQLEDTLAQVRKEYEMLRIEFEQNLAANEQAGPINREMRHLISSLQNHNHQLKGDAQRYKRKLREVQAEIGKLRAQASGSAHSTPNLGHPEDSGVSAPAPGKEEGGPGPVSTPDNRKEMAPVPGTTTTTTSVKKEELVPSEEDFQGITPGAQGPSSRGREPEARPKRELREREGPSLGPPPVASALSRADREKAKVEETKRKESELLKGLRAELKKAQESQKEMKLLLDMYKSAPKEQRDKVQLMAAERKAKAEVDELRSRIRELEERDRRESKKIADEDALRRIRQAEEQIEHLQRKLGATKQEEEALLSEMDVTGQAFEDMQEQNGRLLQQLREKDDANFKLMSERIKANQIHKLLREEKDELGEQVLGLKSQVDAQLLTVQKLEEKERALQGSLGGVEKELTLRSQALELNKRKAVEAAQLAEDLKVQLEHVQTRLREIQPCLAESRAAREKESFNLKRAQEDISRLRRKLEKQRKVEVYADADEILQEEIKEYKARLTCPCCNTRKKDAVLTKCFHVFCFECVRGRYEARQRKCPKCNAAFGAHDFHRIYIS
UniProt Q96AT9: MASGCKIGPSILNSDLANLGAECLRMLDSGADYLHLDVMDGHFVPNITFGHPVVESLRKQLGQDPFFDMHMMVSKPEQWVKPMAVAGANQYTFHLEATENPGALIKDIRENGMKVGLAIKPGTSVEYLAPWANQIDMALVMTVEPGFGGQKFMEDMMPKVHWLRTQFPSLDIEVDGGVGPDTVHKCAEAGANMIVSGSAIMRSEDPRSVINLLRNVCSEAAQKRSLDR
UniProt Q9H4A4: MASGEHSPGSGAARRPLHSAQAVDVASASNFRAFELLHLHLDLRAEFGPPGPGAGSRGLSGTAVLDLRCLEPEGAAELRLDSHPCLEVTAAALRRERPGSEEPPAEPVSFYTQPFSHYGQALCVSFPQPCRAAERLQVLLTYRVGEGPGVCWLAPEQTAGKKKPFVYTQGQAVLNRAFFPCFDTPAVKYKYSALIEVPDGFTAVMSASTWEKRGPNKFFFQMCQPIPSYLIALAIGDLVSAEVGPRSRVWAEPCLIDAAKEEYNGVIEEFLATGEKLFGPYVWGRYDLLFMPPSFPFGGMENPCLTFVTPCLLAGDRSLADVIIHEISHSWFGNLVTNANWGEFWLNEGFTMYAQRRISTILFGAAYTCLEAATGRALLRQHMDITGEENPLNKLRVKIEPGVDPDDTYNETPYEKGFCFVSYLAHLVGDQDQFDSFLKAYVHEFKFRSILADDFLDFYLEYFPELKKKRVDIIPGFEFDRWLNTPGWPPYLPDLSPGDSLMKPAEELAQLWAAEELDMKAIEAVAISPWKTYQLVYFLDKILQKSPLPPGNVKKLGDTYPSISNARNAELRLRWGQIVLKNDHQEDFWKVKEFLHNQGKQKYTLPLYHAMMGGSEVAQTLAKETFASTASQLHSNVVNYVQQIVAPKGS
UniProt O75695: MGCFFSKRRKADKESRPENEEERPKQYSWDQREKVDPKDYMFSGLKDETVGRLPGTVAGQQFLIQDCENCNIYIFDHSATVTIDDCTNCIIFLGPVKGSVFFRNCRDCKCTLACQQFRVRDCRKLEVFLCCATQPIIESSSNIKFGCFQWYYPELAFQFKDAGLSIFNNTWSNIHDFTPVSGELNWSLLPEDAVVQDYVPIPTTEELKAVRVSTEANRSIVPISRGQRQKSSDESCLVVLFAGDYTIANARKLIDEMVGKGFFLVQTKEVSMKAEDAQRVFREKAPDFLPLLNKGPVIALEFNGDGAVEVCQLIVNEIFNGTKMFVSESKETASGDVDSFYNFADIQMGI
UniProt Q8WU17: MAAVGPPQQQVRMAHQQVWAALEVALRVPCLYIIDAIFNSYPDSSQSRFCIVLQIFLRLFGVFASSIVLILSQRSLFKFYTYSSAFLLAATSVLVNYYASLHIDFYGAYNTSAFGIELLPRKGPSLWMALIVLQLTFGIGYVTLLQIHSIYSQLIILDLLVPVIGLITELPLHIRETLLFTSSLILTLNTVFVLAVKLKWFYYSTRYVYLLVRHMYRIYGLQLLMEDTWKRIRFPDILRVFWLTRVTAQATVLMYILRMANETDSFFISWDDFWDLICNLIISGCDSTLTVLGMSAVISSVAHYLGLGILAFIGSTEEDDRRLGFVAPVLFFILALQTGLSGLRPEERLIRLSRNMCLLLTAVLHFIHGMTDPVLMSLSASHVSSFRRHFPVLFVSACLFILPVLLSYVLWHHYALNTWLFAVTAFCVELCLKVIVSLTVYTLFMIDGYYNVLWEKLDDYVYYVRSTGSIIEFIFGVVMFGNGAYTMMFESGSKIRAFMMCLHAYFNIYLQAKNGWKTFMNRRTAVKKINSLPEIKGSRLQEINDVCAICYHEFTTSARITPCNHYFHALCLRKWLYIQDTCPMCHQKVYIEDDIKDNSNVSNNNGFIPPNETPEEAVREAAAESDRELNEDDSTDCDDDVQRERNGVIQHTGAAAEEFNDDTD

Compound: CC1Cc2ccccc2N1C(=O)C1CCCN(C1)C(=O)CCl (mixture of isomers) [TRIM25 ligand 11 (diastereomer mixture)]
Test: probe-labelled cysteine peptide fold change vs DMSO (competition) (log2 fold change); higher = less target engagement (more negative = stronger competition)
Settings: THP-1, incubation time: 4 h
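Also: competitive chemoproteomic profiling in live THP-1 cells with an iodoacetamide desthiobiotin (IA-DTB) probe, comparing probe-labelled peptide intensities in compound-treated cells against DMSO-treated controls.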

Target: RNF41_Q9H4P4_106_LDNLMSHLSDCEHNPK (UniProt Q9H4P4)
- probe-labelled cysteine peptide fold change (10 µM): -0.0596
- probe-labelled cysteine peptide fold change (50 µM): -0.245

Target: RNF213_Q63HN8_1748_ASVGCGSEAAR (UniProt Q63HN8)
- probe-labelled cysteine peptide fold change (10 µM): -0.027
- probe-labelled cysteine peptide fold change (50 µM): -0.0355

Target: RNF213_Q63HN8_78_EEGGPCLFPGSDSWQENPEEPCSK (UniProt Q63HN8)
- probe-labelled cysteine peptide fold change (10 µM): 0.117
- probe-labelled cysteine peptide fold change (50 µM): -0.154

Target: RPA3_P35244_81_ATILCTSYVQFK (UniProt P35244)
- probe-labelled cysteine peptide fold change (10 µM): -0.0242
- probe-labelled cysteine peptide fold change (50 µM): 0.13

Target: RPF2_Q9H7B2_87_SDCSLFMFGSHNK (UniProt Q9H7B2)
- probe-labelled cysteine peptide fold change (10 µM): -0.113
- probe-labelled cysteine peptide fold change (50 µM): -0.108

Target: RNMT_O43148_206_DITVLDLGCGK (UniProt O43148)
- probe-labelled cysteine peptide fold change (10 µM): 0.00427
- probe-labelled cysteine peptide fold change (50 µM): 0.0451

Target: RNH1_P13489_75+85_SNELGDVGVHCVLQGLQTPSCK (UniProt P13489)
- probe-labelled cysteine peptide fold change (10 µM): 0.0255
- probe-labelled cysteine peptide fold change (50 µM): -0.0212

Target: RNF31_Q96EP0_898+901_HQFCSGCYNAFYAK (UniProt Q96EP0)
- probe-labelled cysteine peptide fold change (10 µM): -0.0188
- probe-labelled cysteine peptide fold change (50 µM): -0.0395

Target: ROCK1_Q13464_1245_GHEFIPTLYHFPANCDACAK (UniProt Q13464)
- probe-labelled cysteine peptide fold change (10 µM): 0.0891
- probe-labelled cysteine peptide fold change (50 µM): 0.0665

Target: RNF213_Q63HN8_1156_CVDSLLK (UniProt Q63HN8)
- probe-labelled cysteine peptide fold change (10 µM): 0.0357
- probe-labelled cysteine peptide fold change (50 µM): 0.0382

Target: RNH1_P13489_102_LSLQNCCLTGAGCGVLSSTLR (UniProt P13489)
- probe-labelled cysteine peptide fold change (10 µM): 0.0616
- probe-labelled cysteine peptide fold change (50 µM): 0.309

Target: RNF31_Q96EP0_59_CNAHGEPR (UniProt Q96EP0)
- probe-labelled cysteine peptide fold change (10 µM): -0.0101
- probe-labelled cysteine peptide fold change (50 µM): 0.229

Target: RNF40_O75150_69_QACEDELR (UniProt O75150)
- probe-labelled cysteine peptide fold change (10 µM): 0.136
- probe-labelled cysteine peptide fold change (50 µM): 0.187

Target: RPE_Q96AT9_23_IGPSILNSDLANLGAECLR (UniProt Q96AT9)
- probe-labelled cysteine peptide fold change (10 µM): -0.0498
- probe-labelled cysteine peptide fold change (50 µM): 0.21

Target: RPL7_P18124_186_YGIICMEDLIHEIYTVGK (UniProt P18124)
- probe-labelled cysteine peptide fold change (10 µM): -0.0313
- probe-labelled cysteine peptide fold change (50 µM): -0.0329

Target: RNF138_Q8WVD3_54_ESGAHCPLCR (UniProt Q8WVD3)
- probe-labelled cysteine peptide fold change (10 µM): 0.122
- probe-labelled cysteine peptide fold change (50 µM): -0.124

Target: RPL34_P49207_83_AYGGSMCAK (UniProt P49207)
- probe-labelled cysteine peptide fold change (10 µM): 0.0015
- probe-labelled cysteine peptide fold change (50 µM): -0.092

Target: ROCK1_Q13464_1070_ELNDMQAQLVEECAHR (UniProt Q13464)
- probe-labelled cysteine peptide fold change (10 µM): 0.0196
- probe-labelled cysteine peptide fold change (50 µM): -0.175

Target: RNH1_P13489_96+102_LSLQNCCLTGAGCGVLSSTLR (UniProt P13489)
- probe-labelled cysteine peptide fold change (10 µM): -0.148
- probe-labelled cysteine peptide fold change (50 µM): 0.0275

Target: RNF31_Q96EP0_901_HQFCSGCYNAFYAK (UniProt Q96EP0)
- probe-labelled cysteine peptide fold change (10 µM): 0.129
- probe-labelled cysteine peptide fold change (50 µM): 0.00208

Target: RPL10A_P62906_164_VLCLAVAVGHVK (UniProt P62906)
- probe-labelled cysteine peptide fold change (10 µM): 0.0136
- probe-labelled cysteine peptide fold change (50 µM): 0.19

Target: RNF213_Q63HN8_1805_CLPAFLPDCLDLETLGHCLAHLAGMGGSPVER (UniProt Q63HN8)
- probe-labelled cysteine peptide fold change (10 µM): -0.179
- probe-labelled cysteine peptide fold change (50 µM): 0.165

Target: RPN1_P04843_545_LKTEGSDLCDR (UniProt P04843)
- probe-labelled cysteine peptide fold change (10 µM): -0.139
- probe-labelled cysteine peptide fold change (50 µM): -0.203

Target: RNPEP_Q9H4A4_151_VGEGPGVCWLAPEQTAGKK (UniProt Q9H4A4)
- probe-labelled cysteine peptide fold change (10 µM): -0.0589
- probe-labelled cysteine peptide fold change (50 µM): -0.0795

Target: RPL13A_P40429_38_CEGINISGNFYR (UniProt P40429)
- probe-labelled cysteine peptide fold change (10 µM): 0.153
- probe-labelled cysteine peptide fold change (50 µM): 0.242

Target: RPL18A_Q02543_109_DLTTAGAVTQCYR (UniProt Q02543)
- probe-labelled cysteine peptide fold change (10 µM): -0.00241
- probe-labelled cysteine peptide fold change (50 µM): -0.126

Target: RNF31_Q96EP0_986_EVPNGLRDEACGK (UniProt Q96EP0)
- probe-labelled cysteine peptide fold change (10 µM): 0.00883
- probe-labelled cysteine peptide fold change (50 µM): -0.0335

Target: RNF40_O75150_890_EIQPCLAESR (UniProt O75150)
- probe-labelled cysteine peptide fold change (10 µM): 0.0867
- probe-labelled cysteine peptide fold change (50 µM): 0.00837

Target: RPL11_P62913_21+25_KLCLNICVGESGDR (UniProt P62913)
- probe-labelled cysteine peptide fold change (10 µM): -0.26
- probe-labelled cysteine peptide fold change (50 µM): -0.174

Target: RPL12_P30050_141_EILGTAQSVGCNVDGR (UniProt P30050)
- probe-labelled cysteine peptide fold change (10 µM): 0.0262
- probe-labelled cysteine peptide fold change (50 µM): 0.0287

Target: RPL10A_P62906_66_FSVCVLGDQQHCDEAK (UniProt P62906)
- probe-labelled cysteine peptide fold change (10 µM): -0.151
- probe-labelled cysteine peptide fold change (50 µM): -0.322

Target: RPL24_P83731_36_CESAFLSK (UniProt P83731)
- probe-labelled cysteine peptide fold change (10 µM): -0.109
- probe-labelled cysteine peptide fold change (50 µM): -0.0509

Target: RPL8_P62917_90_RTELFIAAEGIHTGQFVYCGKK (UniProt P62917)
- probe-labelled cysteine peptide fold change (10 µM): -0.302
- probe-labelled cysteine peptide fold change (50 µM): -0.212

Target: RPL34_P49207_46_SACGVCPGR (UniProt P49207)
- probe-labelled cysteine peptide fold change (10 µM): -0.221
- probe-labelled cysteine peptide fold change (50 µM): -0.285

Target: RPL11_P62913_21_KLCLNICVGESGDR (UniProt P62913)
- probe-labelled cysteine peptide fold change (10 µM): -0.165
- probe-labelled cysteine peptide fold change (50 µM): -0.013

Target: RNF213_Q63HN8_700+701_TYTWLGALPVLHCCMELAPR (UniProt Q63HN8)
- probe-labelled cysteine peptide fold change (10 µM): -0.32
- probe-labelled cysteine peptide fold change (50 µM): -0.108

Target: RNF213_Q63HN8_1796_CLPAFLPDCLDLETLGHCLAHLAGMGGSPVER (UniProt Q63HN8)
- probe-labelled cysteine peptide fold change (10 µM): 0.0946
- probe-labelled cysteine peptide fold change (50 µM): 0.347

Target: RP2_O75695_131_KLEVFLCCATQPIIESSSNIK (UniProt O75695)
- probe-labelled cysteine peptide fold change (10 µM): 0.11
- probe-labelled cysteine peptide fold change (50 µM): 0.108

Target: RNF139_Q8WU17_585_WLYIQDTCPMCHQK (UniProt Q8WU17)
- probe-labelled cysteine peptide fold change (10 µM): 0.171
- probe-labelled cysteine peptide fold change (50 µM): 0.136
